These results are taken from PMC6281649.

Amino acid sequences for entries named in this document (tags omitted). Residues count along the entry.
UniProt P35968, residues 20-1356: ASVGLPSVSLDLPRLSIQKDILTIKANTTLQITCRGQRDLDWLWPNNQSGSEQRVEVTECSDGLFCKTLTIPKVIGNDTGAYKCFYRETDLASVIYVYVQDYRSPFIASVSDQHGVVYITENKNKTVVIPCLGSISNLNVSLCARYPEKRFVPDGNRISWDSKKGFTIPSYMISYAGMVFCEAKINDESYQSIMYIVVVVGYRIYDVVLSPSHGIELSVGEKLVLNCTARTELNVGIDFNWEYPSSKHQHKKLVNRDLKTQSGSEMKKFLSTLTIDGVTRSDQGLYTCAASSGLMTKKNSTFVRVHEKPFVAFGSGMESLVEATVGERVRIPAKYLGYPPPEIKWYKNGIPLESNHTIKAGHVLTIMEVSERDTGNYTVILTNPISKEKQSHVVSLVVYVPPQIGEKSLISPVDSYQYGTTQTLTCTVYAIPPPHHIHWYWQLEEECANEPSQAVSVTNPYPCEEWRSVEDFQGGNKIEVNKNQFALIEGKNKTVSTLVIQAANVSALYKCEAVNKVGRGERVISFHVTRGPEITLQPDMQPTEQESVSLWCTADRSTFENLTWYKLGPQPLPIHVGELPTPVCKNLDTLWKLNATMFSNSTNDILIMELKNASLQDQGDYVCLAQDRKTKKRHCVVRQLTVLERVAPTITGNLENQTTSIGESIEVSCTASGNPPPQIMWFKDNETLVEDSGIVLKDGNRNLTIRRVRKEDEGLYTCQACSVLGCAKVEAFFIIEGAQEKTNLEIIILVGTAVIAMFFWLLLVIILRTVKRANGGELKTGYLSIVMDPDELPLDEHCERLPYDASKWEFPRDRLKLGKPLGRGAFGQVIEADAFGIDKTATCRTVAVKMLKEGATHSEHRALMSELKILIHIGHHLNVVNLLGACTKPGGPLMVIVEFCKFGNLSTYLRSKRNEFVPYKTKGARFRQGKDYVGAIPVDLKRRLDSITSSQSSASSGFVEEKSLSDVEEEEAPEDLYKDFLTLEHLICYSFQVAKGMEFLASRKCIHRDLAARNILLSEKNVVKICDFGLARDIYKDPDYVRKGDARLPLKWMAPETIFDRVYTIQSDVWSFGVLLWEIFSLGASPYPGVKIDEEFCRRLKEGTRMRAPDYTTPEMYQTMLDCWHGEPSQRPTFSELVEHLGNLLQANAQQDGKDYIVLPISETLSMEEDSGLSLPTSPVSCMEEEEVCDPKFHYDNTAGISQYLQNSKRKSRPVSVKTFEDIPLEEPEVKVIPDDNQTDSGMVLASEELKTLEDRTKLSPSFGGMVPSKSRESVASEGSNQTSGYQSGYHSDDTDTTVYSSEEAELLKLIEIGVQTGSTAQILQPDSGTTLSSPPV
UniProt P35916, residues 25-1363: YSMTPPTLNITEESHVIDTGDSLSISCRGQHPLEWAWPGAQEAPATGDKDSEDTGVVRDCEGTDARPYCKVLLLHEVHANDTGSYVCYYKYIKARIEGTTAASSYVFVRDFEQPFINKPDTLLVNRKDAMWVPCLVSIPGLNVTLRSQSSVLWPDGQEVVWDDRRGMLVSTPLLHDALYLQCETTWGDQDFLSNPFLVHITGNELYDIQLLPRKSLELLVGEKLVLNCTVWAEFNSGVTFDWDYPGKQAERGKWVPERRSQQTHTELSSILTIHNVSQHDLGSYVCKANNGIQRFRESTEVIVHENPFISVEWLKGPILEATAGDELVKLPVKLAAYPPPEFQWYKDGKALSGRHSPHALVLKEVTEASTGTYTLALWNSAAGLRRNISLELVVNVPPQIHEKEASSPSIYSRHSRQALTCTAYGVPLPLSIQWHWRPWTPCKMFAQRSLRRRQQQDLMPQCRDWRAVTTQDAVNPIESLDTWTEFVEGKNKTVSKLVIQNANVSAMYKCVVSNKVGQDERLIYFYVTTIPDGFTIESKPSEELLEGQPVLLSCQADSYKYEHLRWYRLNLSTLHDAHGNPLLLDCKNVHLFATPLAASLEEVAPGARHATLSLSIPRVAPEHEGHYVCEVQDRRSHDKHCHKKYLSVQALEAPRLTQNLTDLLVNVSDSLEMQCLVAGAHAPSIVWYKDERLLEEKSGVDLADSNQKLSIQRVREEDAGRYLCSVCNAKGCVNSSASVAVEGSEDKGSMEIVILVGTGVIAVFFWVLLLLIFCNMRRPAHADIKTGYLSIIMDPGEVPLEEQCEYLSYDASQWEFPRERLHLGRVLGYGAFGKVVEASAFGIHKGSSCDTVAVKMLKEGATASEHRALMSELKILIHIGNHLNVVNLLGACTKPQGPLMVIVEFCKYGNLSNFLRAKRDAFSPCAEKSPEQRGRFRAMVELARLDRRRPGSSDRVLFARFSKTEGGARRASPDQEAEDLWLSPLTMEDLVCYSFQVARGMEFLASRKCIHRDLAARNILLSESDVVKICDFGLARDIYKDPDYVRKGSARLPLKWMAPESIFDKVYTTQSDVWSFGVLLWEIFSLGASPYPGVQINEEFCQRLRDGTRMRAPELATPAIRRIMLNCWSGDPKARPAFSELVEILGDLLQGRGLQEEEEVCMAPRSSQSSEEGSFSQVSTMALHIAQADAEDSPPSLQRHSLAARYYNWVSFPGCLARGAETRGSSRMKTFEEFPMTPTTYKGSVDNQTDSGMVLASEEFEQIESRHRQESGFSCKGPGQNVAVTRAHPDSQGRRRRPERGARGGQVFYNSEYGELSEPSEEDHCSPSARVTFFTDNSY

These are yes or no findings as the source states them, for the method shown. Binding seen in cells or lysates may run through a third protein. Some binding calls cover weakened binding; strength is not graded here.

The target in test [1] is T1, urokinase plasminogen activator receptor-associated protein, uPARAP/Endo180 (human (endogenous in primary human LECs)) (UniProt Q9UBG0).
T1 sequence: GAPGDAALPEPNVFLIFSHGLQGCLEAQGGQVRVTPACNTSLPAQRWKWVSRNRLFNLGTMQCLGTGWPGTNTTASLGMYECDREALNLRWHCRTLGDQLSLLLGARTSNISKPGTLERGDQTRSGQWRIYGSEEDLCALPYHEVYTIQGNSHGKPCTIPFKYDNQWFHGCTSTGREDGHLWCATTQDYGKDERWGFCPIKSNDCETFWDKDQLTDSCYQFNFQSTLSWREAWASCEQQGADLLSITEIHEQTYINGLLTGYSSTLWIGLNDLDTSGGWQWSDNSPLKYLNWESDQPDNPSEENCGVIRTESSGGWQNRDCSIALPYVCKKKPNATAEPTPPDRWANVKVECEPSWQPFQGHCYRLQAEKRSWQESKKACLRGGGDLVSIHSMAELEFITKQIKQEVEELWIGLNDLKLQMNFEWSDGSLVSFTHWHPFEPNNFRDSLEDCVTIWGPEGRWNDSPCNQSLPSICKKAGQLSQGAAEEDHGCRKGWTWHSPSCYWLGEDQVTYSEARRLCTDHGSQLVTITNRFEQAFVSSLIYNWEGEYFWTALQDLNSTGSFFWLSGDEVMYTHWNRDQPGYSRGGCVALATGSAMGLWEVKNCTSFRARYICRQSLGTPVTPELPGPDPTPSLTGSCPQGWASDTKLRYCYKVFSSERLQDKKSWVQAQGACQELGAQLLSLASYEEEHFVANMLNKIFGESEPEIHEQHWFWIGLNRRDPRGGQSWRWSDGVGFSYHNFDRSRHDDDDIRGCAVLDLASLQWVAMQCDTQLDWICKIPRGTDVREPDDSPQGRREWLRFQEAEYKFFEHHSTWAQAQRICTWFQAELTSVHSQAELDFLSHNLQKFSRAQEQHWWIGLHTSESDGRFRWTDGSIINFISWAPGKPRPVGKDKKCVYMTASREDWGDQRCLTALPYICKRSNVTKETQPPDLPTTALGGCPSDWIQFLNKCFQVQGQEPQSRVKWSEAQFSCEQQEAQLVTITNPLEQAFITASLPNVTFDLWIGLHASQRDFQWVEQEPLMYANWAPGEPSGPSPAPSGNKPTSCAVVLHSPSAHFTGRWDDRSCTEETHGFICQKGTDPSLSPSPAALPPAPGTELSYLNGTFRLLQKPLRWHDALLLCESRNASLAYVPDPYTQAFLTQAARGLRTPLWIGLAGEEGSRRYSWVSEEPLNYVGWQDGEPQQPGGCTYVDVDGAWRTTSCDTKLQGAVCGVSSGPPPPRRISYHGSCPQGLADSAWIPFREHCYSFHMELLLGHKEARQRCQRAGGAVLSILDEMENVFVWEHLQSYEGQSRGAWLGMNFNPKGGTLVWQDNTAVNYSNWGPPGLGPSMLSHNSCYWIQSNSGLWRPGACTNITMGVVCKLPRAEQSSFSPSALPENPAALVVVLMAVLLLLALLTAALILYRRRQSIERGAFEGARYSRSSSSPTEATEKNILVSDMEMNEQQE
The test is described as follows: proximity ligation; in situ PLA (Duolink) in fixed, permeabilised primary human LECs; basal, 5 and 30 min of VEGF-C (400 ng/ml), or migrating 6 h in a VEGF-C gradient; control siRNA, uPARAP siRNA or uPARAP cDNA; dots per cell.

In test [2] the target is T1, urokinase plasminogen activator receptor-associated protein, uPARAP/Endo180 (human (endogenous in primary human LECs)). The test is described as follows: co-IP; immunoprecipitation of uPARAP (mAb 2H9F12, overnight at 4 degrees, Dynabeads Protein G) from LEC lysate in Cell Lysis Buffer at the indicated times of VEGF-C stimulation; blots for VEGFR-2 and VEGFR-3; IgG as negative control.

For “VEGFR-2 (from UniProt P35968 20-1356) (receptor)”, the binding result in test [1] and in test [2] was “binds” in each case.
For “VEGFR-3 (from UniProt P35916 25-1363) (receptor)”, the binding entry in test [1] and in test [2] was “binds” throughout.
